Data reported in PubChem BioAssay AID1347075 (National Center for Advancing Translational Sciences (NCATS), 2019).
Where “and” joins values, the source holds several entries; their conditions need not be identical. Identical values can stand only once. The campaign covered roughly 400,000 compounds. About 5,500 (1.4%) were called active. Inconclusive means that the source gave no clear call. Such entries were picked first, then a sample of the others. Calls follow the shape of the dose curve; as a rule, active = well fitted cell-killing curve with a large enough effect; inconclusive = small, poorly fitted or top-dose-only effect, or effect the other way; inactive = flat fitted curve, though single readings scatter. Potencies of inconclusive entries are doubtful fits and often do not repeat.

Test: qHTS assay for MDR1-selective chemotherapeutics: Primary screen using the parental adenocarcinoma cell KB-3-1; also: nearly all actives have a fitted effect of over 60% in size
Conditions: KB-3-1 viability, CellTiter-Glo ATP luminescence, 72 h; activity change, negative = cytotoxic: at 46.1 µM (top of the series)
Outline: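 Luminescent ATP read-out (CellTiter-Glo) measures survival of drug-naive KB-3-1 cells after 72 h compound exposure at 37 °C. Titration series was screened from lowest to highest concentration, with DMSO vehicle plates as background controls.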
% is scaled to controls: 0 for no effect and ±100 for the full control effect; potency is read from the fitted curve at half-maximal effect.

| Structure (SMILES) | Potency | activity change, negative = cytotoxic |
| --- | --- | --- |
| Nc1nc2nccc(-c3ccc(Cl)cc3)n2n1 | inconclusive: 25.9 µM [cytotoxic, single point] | – |
| CCCOc1ccc(F)cc1-c1cc(C(=O)Nc2ccc(F)cc2)[nH]n1 | inconclusive: 25.9 µM [cytotoxic, partial curve, poor fit] | – |
| CNc1nc(Nc2ccc(C)c(Cl)c2)nc(N)c1[N+](=O)[O-] | inconclusive: 0.146 µM [cytotoxic, full curve, poor fit] | – |
| CCOC(=O)c1c2ccc(OCC(=O)N/N=C/c3ccc(C)cc3)cc2n2ccccc12 | inconclusive: 16.4 µM [cytotoxic, single point] | – |
| O=C(c1cc(-c2cccs2)on1)N1CCN(c2ccccc2)CC1 | inconclusive: 29.1 µM [cytotoxic, single point] | – |
| CSCCC(C(=O)NCc1ccccc1)n1c(C2CCN(C(C)=O)CC2)nc2ccccc21 (stereo not drawn) | – | inconclusive: 5.31% |
| COc1ccc(C(=O)NCCCCCC(=O)N/N=C/c2ccco2)cc1OC | inconclusive: 29.1 µM [rising, single point] | – |
| C[C@H]1CN([C@@H](C)CO)C(=O)CCCn2cc(nn2)CO[C@@H]1CN(C)S(=O)(=O)c1ccc(C#N)cc1 | – | inactive: 25.9% |
| CCOc1ccc(CN2C(=O)c3ccccc3Sc3ccc(C(=O)NCCCN4CCOCC4)cc32)cc1 | active: 18.4 µM and inconclusive: 32.6 µM [cytotoxic, single point] | – |
| COC(=O)c1ccc(COC(=O)c2c(C)nn(Cc3ccccc3Cl)c2Cl)o1 | inconclusive: 20.6 µM [cytotoxic, single point] | – |
| Cc1ccc(NC(=O)CCCCCNS(=O)(=O)c2ccc(C)cc2)cc1 | inconclusive: 18.4 µM [cytotoxic, single point] | – |
| Cc1ccc(OCC(=O)N2CCC(Cc3ccccc3)CC2)c([N+](=O)[O-])n1 | – | inconclusive: -8.33% |
| CCN(CC)c1ccc(/C=N/NC(=O)c2cnccn2)c(O)c1 | active: 0.731 µM | – |
| CC(C)c1nc2oc3c(N4CCN(C)CC4)ncnc3c2c2c1CCC2 | inconclusive: 29.1 µM [cytotoxic, single point] | – |
| Cc1cc(C(=O)CCl)c(C)n1CCc1ccc(Cl)cc1 | inconclusive: 29.1 µM [cytotoxic, single point] | – |
| CCOc1ccc(C(=O)Nc2ccc(NC(=O)c3ccccc3)cc2)cc1Br | inactive | – |
| CC(C)Cn1c([N+](=O)[O-])nc2c1c(=O)[nH]c(=O)n2C | inconclusive: 29.1 µM [cytotoxic, single point] | – |
| O=C1c2ccccc2C(c2nnnn2-c2ccc3ccccc3c2)N1C1CC1 (stereo not drawn) | – | inactive: 1.84% |
| CC1=NN(c2ccccc2)C(=O)C1N=Nc1cccc(O)c1 (stereo not drawn) | inconclusive: 14.6 µM [cytotoxic, partial curve] | – |
| CC(C)c1ccc(/C=C/C2=NNC(=O)CC2)cc1 | active: 0.731 µM | – |
| CCCCn1c(CCNC(=O)c2ccco2)nc2ccccc21 | – | inconclusive: 0% |
| O=C(/C=C/c1ccc2c(c1)OCCO2)c1ccc(O)cc1 | inconclusive: 23.1 µM [cytotoxic, single point] | – |

| Structure (SMILES) | Potency | activity change, negative = cytotoxic |
| --- | --- | --- |
| O=C(Nc1cccc2ccccc12)c1ccc(OC(=S)N2CCOCC2)cc1 | inconclusive: 25.9 µM [cytotoxic, single point] | – |
| O=C(NCC(=O)N1CCN(Cc2ccccc2)CC1)c1cc(Cl)cc([N+](=O)[O-])c1 | active: 23.1 µM | – |
| CN(C)CCCN(Cc1cc2cc3c(cc2[nH]c1=O)OCO3)C(=S)NCc1ccco1 | inconclusive: 0.461 µM [rising, full curve, poor fit] | – |
| O=c1ccc2c(-c3ccccc3S(=O)(=O)O)c3ccc(O)c(O)c3oc-2c1O | inconclusive: 6.51 µM [cytotoxic, partial curve, poor fit] | – |
| O=C(C1CCCN(S(=O)(=O)c2cccc3nonc23)C1)N1CCN(c2cccc(C(F)(F)F)c2)CC1 (stereo not drawn) | inconclusive: 7.31 µM [cytotoxic, partial curve, poor fit] | – |
| Cc1ccc(S(=O)(=O)N(C)C)cc1NC(=S)NC12CC3CC(CC(C3)C1)C2 | – | inactive: -5.15% |
| CCOC(=O)N1CCN(C(=O)CCCCCn2c(=S)[nH]c3ccsc3c2=O)CC1 | – | inactive: 5.21% |
| CC(C)COc1cccc(C(=O)Nc2ccc(CN3CCOCC3)cc2)c1 | inconclusive: 29.1 µM [cytotoxic, single point] | – |
| c1ccc(COC(CN2CCCCCC2)CN2CCCCCC2)cc1 | – | inactive: 0% |
| CCOc1ccc(NC(=O)CSc2nnnn2C2CC2)cc1S(=O)(=O)N1CCCC1 | – | inconclusive: -5.43% |
| CCOP(=O)(OCC)c1nc(-c2cccc3ccccc23)oc1NCCc1ccc(OC)cc1 | inconclusive: 29.1 µM [cytotoxic, single point] | – |
| CN(C)c1ccc(C(C[N+](=O)[O-])c2c(N)n(C)c(=O)n(C)c2=O)c(F)c1C#N (stereo not drawn) | inconclusive: 8.2 µM [cytotoxic, partial curve, poor fit] | – |
| Cc1ccc(S(=O)(=O)N/N=C/c2ccc(C#N)cc2)cc1 | – | inactive: 1.41% |
| CC(C)C(=O)N(Cc1cc2ccccc2[nH]c1=O)C(C)C | – | inactive: 4.43% |
| Cc1ccc(CSC2=Nc3ccccc3C3=NC(CCC(=O)NCc4cccs4)C(=O)N23)c(C)c1 (stereo not drawn) | – | inactive: 2.94% |
| CCNC(=O)NC(=O)C(C)OC(=O)C1CCN(S(=O)(=O)c2ccccc2F)CC1 (stereo not drawn) | inconclusive: 10.3 µM [rising, partial curve, poor fit] | – |
| Cc1ccc(OCCCN2C(=O)C(=O)c3cc(C)ccc32)cc1 | inconclusive: 18.4 µM [cytotoxic, single point] | – |
| Brc1ccc(C2C3=C(Nc4ncnn42)c2ccccc2OC3c2ccncc2)cc1 (stereo not drawn) | inconclusive: 29.1 µM [cytotoxic, single point] | – |
| NC(=O)C1CCN(C2=C(Cl)C(=O)c3ccccc3C2=O)CC1 | inconclusive: 29.1 µM [cytotoxic, single point] | – |
| Fc1ccccc1C1c2cccn2CCN1C(=S)Nc1cccc(Br)c1 (stereo not drawn) | – | inactive: -15.7% |
| Cc1ccc(C(C(=O)NCc2ccccc2)N(C(=O)c2csnn2)c2cccc3ccccc23)o1 (stereo not drawn) | inconclusive: 29.1 µM [cytotoxic, single point] | – |
